Laboratory results: PubChem BioAssay AID504764 (Drosophila RNAi Screening Center, 2011)
The deposit covers about 22,000 reagents; shown is a random part of those that have a named target and a result. In the full data, 403 (1.9%) got an active call. 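Unnormalised raw counts per well; ratio z-scores behind the hit calls and whether each hit raises or lowers signal are not deposited.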 Reagents against one gene are numbered here. A plus sign joins genes that one reagent is predicted to hit. Not given: the amount of reagent.

Purpose: 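Knock-downs that raise or lower a Notch target reporter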 (primary screen)
Cells: Drosophila Kc167 cells
Reagent: long dsRNA against Drosophila genes
Time to read-out: about 5 days (4 days dsRNA, then 24 h after transfection)
Treatment: transfection of constitutively active membrane-tethered Notch lacking the extracellular domain, read 24 h later
Measurement: 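Firefly luciferase from an E(spl)m3 reporter with active Notch, plus control-promoter and uninduced reporter wells for normalisation; unnormalised counts, duplicate wells a and b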
Scale: induced reporter light, run 1, well a and induced reporter light, run 1, well b: higher = more light from the Notch target reporter with active Notch; control promoter light, run 1, well a and control promoter light, run 1, well b: higher = more light from the viral control promoter (cell number, transfection, viability); uninduced reporter light, run 1, well a: higher = more light from the Notch target reporter without active Notch
Call rule: 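Hit if the duplicate-averaged log2 ratio of induced to control-promoter light gives a plate-wise z beyond ±2, or induced to uninduced beyond ±1.8; weak-control or discordant-duplicate wells dropped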
Calls: active = modifier hit (raised or lowered Notch signal); inactive = not a hit

target | reagent no. | induced reporter light, run 1, well a | induced reporter light, run 1, well b | control promoter light, run 1, well a | control promoter light, run 1, well b | uninduced reporter light, run 1, well a | activity call
RpS11 | 1 | 1.20e5 | 1.29e5 | 1.16e5 | 1.42e5 | 8525 | inactive
CG7079 | 1 | 2.01e5 | 1.61e5 | 1.61e5 | 1.69e5 | 10235 | inactive
Npc1b | 1 | 91545 | 90330 | 1.04e5 | 1.10e5 | 9975 | inactive
DIP-zeta | 1 | 1.06e5 | 1.33e5 | 56250 | 69925 | 17830 | inactive
DIP-zeta | 2 | 1.02e5 | 1.23e5 | 75340 | 1.02e5 | 16228 | inactive
DIP-zeta | 3 | 1.30e5 | 1.49e5 | 73945 | 1.02e5 | 21780 | inactive
PK2-R1 | 1 | 1.93e5 | 2.00e5 | 1.92e5 | 2.13e5 | 15270 | inactive
Ice1 | 1 | 1.78e5 | 2.00e5 | 1.59e5 | 1.55e5 | 12880 | inactive
CG5050 | 1 | 1.28e5 | 1.22e5 | 1.35e5 | 1.29e5 | 10955 | inactive
CG3984 | 1 | 1.90e5 | 2.11e5 | 1.84e5 | 1.91e5 | 17710 | inactive
CG15458 | 1 | 1.16e5 | 1.20e5 | 1.05e5 | 99795 | 9490 | inactive
vnc + CG42455 | 1 | 1.14e5 | 90935 | 64505 | 50085 | 12085 | inactive

Continued, starting with the last 3 of the part before.
target | reagent no. | induced reporter light, run 1, well a | induced reporter light, run 1, well b | control promoter light, run 1, well a | control promoter light, run 1, well b | uninduced reporter light, run 1, well a | activity call
CG3984 | 1 | 1.90e5 | 2.11e5 | 1.84e5 | 1.91e5 | 17710 | inactive
CG15458 | 1 | 1.16e5 | 1.20e5 | 1.05e5 | 99795 | 9490 | inactive
vnc + CG42455 | 1 | 1.14e5 | 90935 | 64505 | 50085 | 12085 | inactive
CG7924 | 1 | 1.20e5 | 1.55e5 | 66850 | 95380 | 11838 | inactive
CG4511 | 1 | 30415 | 29675 | 23228 | 24555 | 2680 | inactive
Ras64B | 1 | 1.29e5 | 1.04e5 | 1.70e5 | 1.52e5 | 11990 | inactive
mRpS18B | 1 | 2.41e5 | 2.14e5 | 2.43e5 | 2.68e5 | 17460 | inactive
CG9588 | 1 | 2.56e5 | 2.47e5 | 2.38e5 | 2.43e5 | 20800 | inactive
hbn | 1 | 3185 | 1810 | 3185 | 3590 | 505 | inactive
hbn | 2 | 58530 | 49590 | 52255 | 69450 | 3350 | inactive
hbn | 3 | 30560 | 31395 | 26795 | 21970 | 1890 | inactive
CG44836 | 1 | 1.85e5 | 1.42e5 | 2.03e5 | 1.89e5 | 10078 | inactive
CG33155 + mRpL53 | 1 | 2.00e5 | 1.78e5 | 2.51e5 | 2.96e5 | 17695 | inactive
Papss | 1 | 1.03e5 | 95250 | 69945 | 68445 | 6390 | inactive
CG12768 | 1 | 69935 | 62175 | 65355 | 48930 | 5618 | inactive
CG32091 | 1 | 1.65e5 | 1.12e5 | 1.55e5 | 10285 | 12015 | inactive
CG32091 | 2 | 1.61e5 | 1.29e5 | 2.00e5 | 1.27e5 | 8285 | inactive
CG32473 | 1 | 1.90e5 | 2.22e5 | 2.35e5 | 2.38e5 | 15870 | inactive
CG32473 | 2 | 1.54e5 | 1.55e5 | 98145 | 1.07e5 | 10145 | inactive
Mst89B | 1 | 2.01e5 | 1.80e5 | 2.00e5 | 2.21e5 | 17490 | inactive
sba | 1 | 14500 | 12700 | 15250 | 14505 | 5425 | inactive
sba | 2 | 1.02e5 | 1.12e5 | 1.56e5 | 1.33e5 | 11425 | inactive
rswl | 1 | 82300 | 86870 | 1.85e5 | 1.96e5 | 7370 | inactive
CG14989 | 1 | 1.78e5 | 1.43e5 | 1.06e5 | 58700 | 12800 | inactive
CG5693 | 1 | 1.13e5 | 1.24e5 | 1.23e5 | 1.39e5 | 9905 | inactive
